Assay results reported in paper PMC4264851.

How the values were obtained:
[1] = target: T1, Utp6-HA (S. cerevisiae) (UniProt Q02354); assay: affinity purification with mass spectrometry; only Utp21-TAP, Utp6-HA, Utp18 and Pwp2 co-expressed in SF21 cells (bacmid K2137); one-step, bait Utp21-TAP on IgG-coupled beads with TEV elution, or bait Utp6-HA by anti-HA affinity purification; SDS-PAGE and MS
T1 sequence: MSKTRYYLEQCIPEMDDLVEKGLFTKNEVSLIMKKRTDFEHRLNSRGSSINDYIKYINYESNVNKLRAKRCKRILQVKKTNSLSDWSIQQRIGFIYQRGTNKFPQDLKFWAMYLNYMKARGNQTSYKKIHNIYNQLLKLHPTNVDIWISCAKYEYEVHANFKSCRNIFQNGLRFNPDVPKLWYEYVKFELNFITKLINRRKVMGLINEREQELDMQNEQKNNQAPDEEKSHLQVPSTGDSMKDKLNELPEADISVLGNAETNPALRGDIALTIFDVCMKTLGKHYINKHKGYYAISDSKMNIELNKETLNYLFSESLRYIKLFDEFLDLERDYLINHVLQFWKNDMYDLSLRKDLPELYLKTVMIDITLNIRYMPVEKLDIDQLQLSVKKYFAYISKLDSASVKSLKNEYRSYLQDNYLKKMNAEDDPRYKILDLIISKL

[2] = target: T2, Utp21-TAP (S. cerevisiae) (UniProt Q06078); assay: as above
T2 sequence: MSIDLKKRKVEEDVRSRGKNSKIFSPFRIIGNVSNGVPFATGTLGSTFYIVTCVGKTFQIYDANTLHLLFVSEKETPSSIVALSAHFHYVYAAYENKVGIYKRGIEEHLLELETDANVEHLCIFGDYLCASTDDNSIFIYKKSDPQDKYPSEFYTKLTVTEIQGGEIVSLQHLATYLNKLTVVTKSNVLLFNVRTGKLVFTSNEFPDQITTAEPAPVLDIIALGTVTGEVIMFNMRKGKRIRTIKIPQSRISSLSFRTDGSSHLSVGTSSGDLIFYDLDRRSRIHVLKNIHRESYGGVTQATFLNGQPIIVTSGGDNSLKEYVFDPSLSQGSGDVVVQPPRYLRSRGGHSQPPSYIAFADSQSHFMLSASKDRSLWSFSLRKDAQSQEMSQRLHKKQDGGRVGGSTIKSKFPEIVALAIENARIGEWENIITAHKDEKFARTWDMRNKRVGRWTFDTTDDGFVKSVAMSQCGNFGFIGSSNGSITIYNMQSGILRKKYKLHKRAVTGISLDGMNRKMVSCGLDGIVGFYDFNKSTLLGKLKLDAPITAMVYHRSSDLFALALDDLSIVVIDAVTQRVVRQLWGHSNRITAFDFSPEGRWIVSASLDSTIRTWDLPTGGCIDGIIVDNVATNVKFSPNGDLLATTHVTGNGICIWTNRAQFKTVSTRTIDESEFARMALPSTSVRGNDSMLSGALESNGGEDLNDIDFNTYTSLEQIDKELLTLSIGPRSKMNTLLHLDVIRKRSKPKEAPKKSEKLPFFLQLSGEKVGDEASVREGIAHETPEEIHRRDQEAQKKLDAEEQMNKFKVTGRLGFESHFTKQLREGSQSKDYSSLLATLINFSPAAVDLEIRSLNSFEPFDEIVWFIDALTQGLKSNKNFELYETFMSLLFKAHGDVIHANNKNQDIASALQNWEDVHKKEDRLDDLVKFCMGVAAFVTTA

[3] = target: T1, Utp6-HA (S. cerevisiae); assay: affinity purification with mass spectrometry; only Utp21-TAP, Utp6-HA and Utp18 co-expressed in SF21 cells (bacmid K2136); one-step, bait Utp21-TAP on IgG-coupled beads with TEV elution, or bait Utp6-HA by HA affinity purification; SDS-PAGE and MS
[4] = target: T2, Utp21-TAP (S. cerevisiae); assay: as above
[5] = target: T1, Utp6-HA (S. cerevisiae); assay: affinity purification with mass spectrometry; only Pwp2-TAP, Utp6-HA and Utp18 co-expressed in SF21 cells (bacmid K2134); one-step, bait Pwp2-TAP on IgG-coupled beads with TEV elution, or bait Utp6-HA by HA affinity purification; SDS-PAGE and MS
[6] = target: T3, Utp12-FLAG (S. cerevisiae) (UniProt Q12220); assay: affinity purification with mass spectrometry; Pwp2, Utp6-HA, Utp12-FLAG, Utp13, Utp18 and Utp21 co-expressed in SF21 cells (bacmid K1992); one-step, bait Utp12-FLAG on anti-FLAG affinity matrix, FLAG peptide elution; SDS-PAGE, Coomassie, MS of bands
T3 sequence: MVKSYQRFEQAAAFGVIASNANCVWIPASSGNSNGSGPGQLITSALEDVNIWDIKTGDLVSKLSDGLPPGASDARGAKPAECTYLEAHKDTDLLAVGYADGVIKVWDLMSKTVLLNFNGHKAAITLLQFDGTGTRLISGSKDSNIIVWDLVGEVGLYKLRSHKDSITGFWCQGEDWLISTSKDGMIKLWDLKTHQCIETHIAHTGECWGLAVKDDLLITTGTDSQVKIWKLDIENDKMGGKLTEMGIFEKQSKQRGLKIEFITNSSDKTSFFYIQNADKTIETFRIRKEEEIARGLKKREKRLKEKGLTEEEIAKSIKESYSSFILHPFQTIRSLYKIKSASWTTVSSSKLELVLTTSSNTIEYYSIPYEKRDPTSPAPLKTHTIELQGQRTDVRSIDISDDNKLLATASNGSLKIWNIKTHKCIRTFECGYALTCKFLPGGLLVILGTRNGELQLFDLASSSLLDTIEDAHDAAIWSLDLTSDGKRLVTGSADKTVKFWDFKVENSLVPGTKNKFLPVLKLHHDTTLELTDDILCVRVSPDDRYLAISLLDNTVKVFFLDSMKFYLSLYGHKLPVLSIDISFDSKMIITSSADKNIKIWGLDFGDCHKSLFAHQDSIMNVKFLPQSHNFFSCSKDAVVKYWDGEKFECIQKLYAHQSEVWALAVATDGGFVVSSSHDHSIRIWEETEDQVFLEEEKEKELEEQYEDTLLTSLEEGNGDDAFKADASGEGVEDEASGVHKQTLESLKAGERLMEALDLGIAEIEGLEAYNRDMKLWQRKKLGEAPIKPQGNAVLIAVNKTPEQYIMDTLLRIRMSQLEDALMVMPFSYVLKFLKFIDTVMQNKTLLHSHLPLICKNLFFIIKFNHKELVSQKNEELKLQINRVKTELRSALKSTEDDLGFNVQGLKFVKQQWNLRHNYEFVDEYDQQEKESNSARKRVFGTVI

[7] = target: T1, Utp6-HA (S. cerevisiae); assay: affinity purification with mass spectrometry; bacmid K1991 (six UTP B proteins); two-step: IgG Sepharose/TEV eluate (Pwp2-TAP) purified again on anti-HA affinity matrix with Utp6-HA as bait, HA peptide elution; SDS-PAGE, Coomassie, MS of bands
[8] = target: T1, Utp6-HA (S. cerevisiae); assay: affinity purification with mass spectrometry; bacmid K1992 (six UTP B proteins); two-step: anti-FLAG eluate (Utp12-FLAG) purified again on anti-HA affinity matrix with Utp6-HA as bait, HA peptide elution; SDS-PAGE, Coomassie, MS of bands
[9] = target: T1, Utp6-HA (S. cerevisiae); assay: affinity purification with mass spectrometry; only Utp6-HA and Utp18 co-expressed in SF21 cells (bacmid K2139); one-step, bait Utp6-HA by HA affinity purification; SDS-PAGE and MS

Measured: binding

B1: Utp18 (protein, UniProt P40362 1-594)
chain: MTMATTAMNVSVPPPDEEEQLLAKFVFGDTTDLQENLAKFNADFIFNEQEMDVEDQEDEGSESDNSEEDEAQNGELDHVNNDQLFFVDDGGNEDSQDKNEDTMDVDDEDDSSSDDYSEDSEEAAWIDSDDEKIKVPILVTNKTKKLRTSYNESKINGVHYINRLRSQFEKIYPRPKWVDDESDSELDDEEDDEEEGSNNVINGDINALTKILSTTYNYKDTLSNSKLLPPKKLDIVRLKDANASHPSHSAIQSLSFHPSKPLLLTGGYDKTLRIYHIDGKTNHLVTSLHLVGSPIQTCTFYTSLSNQNQQNIFTAGRRRYMHSWDLSLENLTHSQTAKIEKFSRLYGHESTQRSFENFKVAHLQNSQTNSVHGIVLLQGNNGWINILHSTSGLWLMGCKIEGVITDFCIDYQPISRGKFRTILIAVNAYGEVWEFDLNKNGHVIRRWKDQGGVGITKIQVGGGTTTTCPALQISKIKQNRWLAVGSESGFVNLYDRNNAMTSSTPTPVAALDQLTTTISNLQFSPDGQILCMASRAVKDALRLVHLPSCSVFSNWPTSGTPLGKVTSVAFSPSGGLLAVGNEQGKVRLWKLNHY
binds: all assays above

These are yes or no findings as the source states them, for the method shown. In cells and extracts the contact can be indirect. Here binding means that the protein was enriched with, or labelled near, the bait; the list need not be complete. For part of these data: Sequences can lack the tags named with a protein.
